Measurements reported in PubChem BioAssay AID1259308 (NCATS, 2017).

Screen: 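Genes whose loss raises luciferase production in HEK293 cells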 (primary screen)
System: human HEK293 embryonic kidney cells stably expressing firefly luciferase (HEK-CMV-Luc2-Hygro)
Reagents: single siRNA against human genes, 0.8 pmol siRNA per well
Timing: 72 h
Detection: 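Reporter luminescence and viable-cell signal on separate replicate plates, given as percent of non-targeting control and median/MAD z-scores, plus per-cell luciferase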
Direction: total luciferase, z-score and total luciferase, % of control: higher = more reporter protein produced; luciferase per cell, z-score: higher = more reporter output per viable cell; viable cells, % of control: higher = more viable cells
Call rule: 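Active when the median/MAD z-score for overall luciferase is greater than 3; a gene was taken forward for validation with new siRNAs if at least two of its three siRNAs passed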
Meaning of the calls: active = raised luciferase; inactive = no rise
The deposit covers about 59,000 reagents; shown is an unselected part. Of all reagents, about 1,510 (2.6%) were called active. 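Calls use total luciferase alone and ignore viability, so some active siRNAs may act by altering cell number.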 A number with no mark means an inactive call. The numbers tell different reagents against one gene apart.

no.	Target gene	reagent	total luciferase, z-score	total luciferase, % of control	luciferase per cell, z-score	viable cells, % of control
1	DRG1 (developmentally regulated GTP binding protein 1)	1	0.91	100	0.775	91.1
2	DRG1 (developmentally regulated GTP binding protein 1)	2	-1.09	60.1	-0.912	85.4
3	DRG1 (developmentally regulated GTP binding protein 1)	3	0.912	100	0.804	90.5
4	LOC646030 (leucine rich repeat containing 37B pseudogene)	1	-0.933	63.3	-0.821	87.8
5	LOC646030 (leucine rich repeat containing 37B pseudogene)	2	1.9	120	1.36	93.6
6	LOC646030 (leucine rich repeat containing 37B pseudogene)	3	0.19	85.7	0.576	82.3
7	LOC646030 (leucine rich repeat containing 37B pseudogene)	4	1.16	105	0.999	90.2
8	LOC646030 (leucine rich repeat containing 37B pseudogene)	5	-0.109	79.7	0.493	78.2
9	LOC646030 (leucine rich repeat containing 37B pseudogene)	6	0.306	88	-0.249	105
10	FBXO39 (F-box protein 39)	1	1.71	116	0.898	102
11	FBXO39 (F-box protein 39)	2	0.534	92.5	0.0041	103
12	FBXO39 (F-box protein 39)	3	-0.535	71.2	-0.387	88.1
13	TMEM87A (transmembrane protein 87A)	1	1.25	107	1.72	75.9
14	TMEM87A (transmembrane protein 87A)	2	0.835	98.5	0.455	97.6
15	TMEM87A (transmembrane protein 87A)	3	-0.352	74.9	-0.385	92.6
16	SVOPL (SVOP like)	1	1.18	105	2.07	68.3
17	SVOPL (SVOP like)	2	2.22	126	1.75	88.9
18	SVOPL (SVOP like)	3	-0.586	70.2	0.455	69.6
19	SHLD1 (shieldin complex subunit 1)	1	-1.35	55.1	0.512	53.8
20	SHLD1 (shieldin complex subunit 1)	2	-0.943	63.1	-0.575	82.1
21	SHLD1 (shieldin complex subunit 1)	3	0.931	100	2.57	57.1
22	CBX6 (chromobox 6)	1	-1.16	58.8	-1.5	97.7
23	CBX6 (chromobox 6)	2	-0.41	73.7	-0.769	101
24	CBX6 (chromobox 6)	3	0.456	90.9	0.656	85.5
25	RAB42P1 (RAB42, member RAS oncogene family, pseudogene 1)	1	-0.0965	80	-0.243	95.3
26	RAB42P1 (RAB42, member RAS oncogene family, pseudogene 1)	2	-2.26	36.9	-1.86	67.4
27	RAB42P1 (RAB42, member RAS oncogene family, pseudogene 1)	3	0.494	91.7	0.673	85.8

4 consecutive entries already listed, for reference:
no.	Target gene	reagent	total luciferase, z-score	total luciferase, % of control	luciferase per cell, z-score	viable cells, % of control
8	LOC646030 (leucine rich repeat containing 37B pseudogene)	5	-0.109	79.7	0.493	78.2
9	LOC646030 (leucine rich repeat containing 37B pseudogene)	6	0.306	88	-0.249	105
10	FBXO39 (F-box protein 39)	1	1.71	116	0.898	102
11	FBXO39 (F-box protein 39)	2	0.534	92.5	0.0041	103

Additional records follow.
no.	Target gene	reagent	total luciferase, z-score	total luciferase, % of control	luciferase per cell, z-score	viable cells, % of control
28	ZBTB8A (zinc finger and BTB domain containing 8A)	1	0.208	86	0.277	89.4
29	ZBTB8A (zinc finger and BTB domain containing 8A)	2	0.776	97.3	0.162	104
30	ZBTB8A (zinc finger and BTB domain containing 8A)	3	0.595	93.7	-0.344	115
31	LOC402715 (karyopherin subunit alpha 2 pseudogene)	1	-0.661	68.7	-0.0116	77
32	LOC402715 (karyopherin subunit alpha 2 pseudogene)	2	1.05	103	1.18	84.3
33	LOC402715 (karyopherin subunit alpha 2 pseudogene)	3	1.05	103	0.6	98.1
34	SH3TC2 (SH3 domain and tetratricopeptide repeats 2)	1	4.21 (active)	166	3.28	78.1
35	SH3TC2 (SH3 domain and tetratricopeptide repeats 2)	2	0.624	94.3	-0.227	112
36	SH3TC2 (SH3 domain and tetratricopeptide repeats 2)	3	0.444	90.7	-0.188	107
37	PIMREG (PICALM interacting mitotic regulator)	1	0.284	87.5	-0.566	114
38	PIMREG (PICALM interacting mitotic regulator)	2	0.722	96.2	1.04	81.8
39	PIMREG (PICALM interacting mitotic regulator)	3	0.153	84.9	-0.41	106
40	MTHFR (methylenetetrahydrofolate reductase)	1	0.0846	83.6	-0.481	106
41	MTHFR (methylenetetrahydrofolate reductase)	2	0.985	101	1.32	80.1
42	MTHFR (methylenetetrahydrofolate reductase)	3	-0.143	79	1.3	62.7
43	TUBB4B (tubulin beta 4B class IVb)	1	0.281	87.5	-0.139	101
44	TUBB4B (tubulin beta 4B class IVb)	2	-1.08	60.5	-1.49	99.9
45	TUBB4B (tubulin beta 4B class IVb)	3	0.636	94.5	0.192	100
46	CST11 (cystatin 11)	1	2.02	122	1.27	97.5
47	CST11 (cystatin 11)	2	-1.42	53.7	-0.283	64.7
48	CST11 (cystatin 11)	3	0.143	84.7	0.524	82.5
49	VPS28 (VPS28 subunit of ESCRT-I)	1	1.3	108	1.5	81.1
50	VPS28 (VPS28 subunit of ESCRT-I)	2	-0.0434	81	-0.427	101
51	VPS28 (VPS28 subunit of ESCRT-I)	3	1.43	110	0.696	103
52	ZNF681 (zinc finger protein 681)	1	1.08	103	0.924	90.6
53	ZNF681 (zinc finger protein 681)	2	-1.03	61.4	-1.6	105
54	ZNF681 (zinc finger protein 681)	3	0.326	88.4	-0.323	108
55	ZBTB11 (zinc finger and BTB domain containing 11)	1	0.279	87.4	0.205	92.6
56	ZBTB11 (zinc finger and BTB domain containing 11)	2	2.78	137	2.48	79.8
57	ZBTB11 (zinc finger and BTB domain containing 11)	3	-0.24	77.1	0.238	80.9
